Some of the results follow. This data set is noisy: repeats of one test often differ as much as different tests do.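 Free-swimming zebrafish larvae were assessed for O-bend response probability to dark flashes (naive: first five; training: remaining flashes across four 60-flash blocks; test: later 60-flash block) and for OMR turning toward alternating leftward/rightward LED motion. Six treated larvae were compared against sixty 0.1% DMSO controls; hits required |SSMD|≥2.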
The compounds below were run on Danio rerio larvae (5 dpf, TLF) (assay: Prob-Naive (SSMD vs DMSO vehicle); higher = higher than vehicle (e.g. higher dark-flash O-bend response probability, or better optomotor performance)). Settings: 10 µM; pre-incubation: 30-90 min.
O=c1ncccn1[C@@H]1O[C@H](CO)[C@H](O)[C@@H]1O [Zebularine] showed a Prob-Naive of 0.446.
For CN[C@@H]1[C@H](O[C@H]2[C@H](O[C@H]3[C@H](O)[C@@H](O)[C@@H](NC(=N)N)[C@@H](O)[C@@H]3NC(=N)N)O[C@@H](C)[C@@]2(O)C=O)O[C@H](CO)[C@H](O)[C@H]1O.CN[C@@H]1[C@H](O[C@H]2[C@H](O[C@H]3[C@H](O)[C@@H](O)[C@@H](NC(=N)N)[C@@H](O)[C@@H]3NC(=N)N)O[C@@H](C)[C@@]2(O)C=O)O[C@H](CO)[C@H](O)[C@H]1O.O=S(=O)(O)O.O=S(=O)(O)O.O=S(=O)(O)O [Streptomycin sulfate], the Prob-Naive was 0.204.
In the case of C=Cc1c(C)c2cc3nc(cc4[nH]c(cc5nc(cc1[nH]2)C(C)=C5CCC(=O)O)c(CCC(=O)OC)c4C)[C@@]1(C)C3=CC=C(C(=O)OC)[C@H]1C(=O)OC [Verteporfin (Visudyne)], the Prob-Naive is reported as -0.525.
COC(=O)N[C@H](C(=O)N[C@@H](Cc1ccccc1)[C@@H](O)CN(Cc1ccc(-c2ccccn2)cc1)NC(=O)[C@@H](NC(=O)OC)C(C)(C)C)C(C)(C)C.O=S(=O)(O)O [Atazanavir Sulfate] was tested, and the Prob-Naive was -0.157.
For CCC(CC)[C@H](NC(C)=O)[C@@H]1[C@H](O)[C@@H](C(=O)O)C[C@H]1NC(=N)N.O.O.O [Peramivir Trihydrate], the Prob-Naive was -0.142.
C=CC(=O)Nc1cccc(Oc2nc(Nc3ccc(N4CCN(C)CC4)cc3)ncc2Cl)c1 was tested, and the Prob-Naive was -0.112.
Compound CC(NC(=O)c1ccccc1/N=C/c1c(O)ccc2ccccc12)c1ccccc1 (stereo unspecified) [Sirtinol] has a Prob-Naive of -1.24.
For CN1CCN(c2ccc3nc(-c4c(N)c5c(F)cccc5[nH]c4=O)[nH]c3c2)CC1 [Dovitinib (TKI-258, CHIR-258)], the Prob-Naive was 0.568.
Compound CCCCC(=O)N(Cc1ccc(-c2ccccc2-c2nn[nH]n2)cc1)[C@H](C(=O)O)C(C)C [Valsartan] has a Prob-Naive of -0.42.
Compound CN(C)CCN1C(=O)c2cccc3cc(N)cc(c23)C1=O [Amonafide] has a Prob-Naive of -0.192.
For Nc1nc(=O)c2ncn(CCC(CO)CO)c2[nH]1 [Penciclovir], the Prob-Naive was 0.573.
Cl.c1ccc(C2CN3CCSC3=N2)cc1 (stereo unspecified) [Tetramisole HCl] gave a Prob-Naive of -0.461.
In the case of COc1ccc([C@H]2CNC(=O)C2)cc1OC1CCCC1 [S- (+)-Rolipram], the Prob-Naive is reported as -0.533.
N[C@@H]1CN(c2c(F)cc3c(=O)c(C(=O)O)cn([C@@H]4C[C@@H]4F)c3c2Cl)CC12CC2 [Sitafloxacin Hydrate] showed a Prob-Naive of -0.383.
For Nc1nc(N)c2nc(-c3cccc(O)c3)c(-c3cccc(O)c3)nc2n1, the Prob-Naive was 0.471.
For Cn1c(=O)n(-c2ccc(C(C)(C)C#N)cc2)c2c3cc(-c4cnc5ccccc5c4)ccc3ncc21 [BEZ235 (NVP-BEZ235, Dactolisib)], the Prob-Naive was -0.411.
In the case of CC(C)(C)NC[C@H](O)COc1nsnc1N1CCOCC1.O=C(O)/C=C/C(=O)O [Timolol Maleate], the Prob-Naive is reported as -0.52.
In the case of CC(C(=O)O)c1ccc2c(c1)[nH]c1ccc(Cl)cc12 (stereo unspecified) [Carprofen], the Prob-Naive is reported as -0.095.
For CNC(=O)c1cccc(-c2ccc3c(N4CCOC[C@@H]4C)nc(N4CCOC[C@@H]4C)nc3n2)c1, the Prob-Naive was 0.0457.
Compound COC(=O)Nc1nc2ccc(C(=O)c3ccc(F)cc3)cc2[nH]1 [Flubendazole] has a Prob-Naive of 0.471.
CCc1ccc(CCOc2ccc(CC3SC(=O)NC3=O)cc2)nc1.Cl (stereo unspecified) [Pioglitazone HCl] showed a Prob-Naive of -0.305.
For CN/C(=N\C#N)NCCSCc1nc[nH]c1C [Cimetidine], the Prob-Naive was 0.357.
CC(C)NCC(O)c1ccc(O)c(O)c1.Cl (stereo unspecified) [Isoprenaline HCl] gave a Prob-Naive of 0.394.
For Cl.Nc1c2c(nc3ccccc13)CCCC2 [Tacrine HCl], the Prob-Naive was 0.457.
C[C@H]1C[C@H]2[C@@H]3CCC4=CC(=O)C=C[C@]4(C)[C@@H]3C(=O)C[C@]2(C)[C@]1(O)C(=O)CO [Meprednisone] showed a Prob-Naive of 0.454.
In the case of CN(C)CCCN1c2ccccc2CCc2ccc(Cl)cc21.Cl [Clomipramine HCl], the Prob-Naive is reported as -1.1.

From the supplement of paper PMC10727501
